Data as given in the supplement of paper PMC4962491.
± gives the standard deviation of the averaged measurements. Only a part is listed here, and it is no random draw. Most values lie within the scatter of the assay; repeated measurements hardly agree. Numbered stars: 1 amine (or outer) side, 2 acyl side, 3 side chain; on linkers, the order of the positions; unused ones are H or OH. Bridge positions count the residues as written; N and C are the ends. Square brackets hold non-standard residues; d marks the D form. Peptide text beside a SMILES is read from it. * marks the point of attachment. ξ: configuration not given here. Ileψ(thiazoline)Cys = CC[C@H](C)[C@H](N)C1=N[C@H](C(=O)*)CS1; X4 = O=C([C@H](N[*:1])C1CCC(O)CC1)[*:2]; X6 = O=C(C(N[*:1])C1CCC(O)C(Cl)C1)[*:2]; X5 = O=C(C(N[*:1])C1CCC(O)CC1)[*:2]; aThr = C[C@H](O)[C@H](N)C(=O)O; dOrn = NCCC[C@@H](N)C(=O)O; X3 = CCC/C=C\C=C/C(=O)*; ξN = NC(=O)CC(N)C(=O)O

System: FaDu
Assay: mitochondrial oxygen consumption rate normalised to cell number, Z score over the library; higher = higher oxygen consumption (negative = OCR reduction)
Details: treatment time 24 h, assay medium: 5 mM galactose, 5 mM pyruvate, 4 mM glutamine
Experimental: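 Primary screen: FaDu cells were incubated 24 h with Pharmakon 1600 / TDI oncology set compounds at 2 or 10 uM. Mitochondrial-specific OCR (basal minus 2 uM antimycin A) was measured on a Seahorse XF96 in assay medium with 5 mM galactose, 5 mM pyruvate and 4 mM glutamine, then corrected for Hoechst cell number and expressed as a Z score […]. Compounds that cut cell number by >66% were excluded. Two repeats.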

Compound	mitochondrial oxygen consumption rate normalised (2 µM)	mitochondrial oxygen consumption rate normalised (10 µM)
CNC[C@H](O)c1ccc(O)c(O)c1	0.116 ± 0.45	
COc1ccc(OC)c(C(O)CNC(=O)CN)c1 (stereo unspecified)	0.73 ± 0.71	0.934 ± 0.11
CC(S)C(=O)NCC(=O)O (stereo unspecified)	0.0784 ± 0.56	
CN1CCN(CCCN2c3ccccc3Sc3ccc(C(F)(F)F)cc32)CC1	0.346 ± 0.43	
CC[C@H](C)[C@H](N)C1=N[C@H](C(=O)N[C@@H](CC(C)C)C(=O)N[C@H](CCC(=O)O)C(=O)N[C@H](C(=O)N[C@H]2CCCCNC(=O)[C@H](CC(N)=O)NC(=O)[C@@H](CC(=O)O)NC(=O)[C@H](Cc3cnc[nH]3)NC(=O)[C@@H](Cc3ccccc3)NC(=O)[C@H]([C@@H](C)CC)NC(=O)[C@@H](CCCN)NC2=O)[C@@H](C)CC)CS1 ({Ileψ(thiazoline)Cys}-L[dE]IK[dOrn]I[dF]H[dD]N; lactam 4-C)	0.371 ± 0.25	
CC(=O)NS(=O)(=O)c1ccc(NC(=O)c2ccccc2C(=O)O)cc1	0.467 ± 0.3	
CCc1nc(N)nc(N)c1-c1ccc(Cl)cc1	-0.408 ± 0.24	
CC(=O)[C@@]1(O)CC[C@H]2[C@@H]3C[C@H](C)C4=CC(=O)C=C[C@]4(C)[C@@]3(F)[C@@H](O)C[C@@]21C	-0.612 ± 0.62	
CN1CC(=O)N2[C@H](c3ccc4c(c3)OCO4)c3[nH]c4ccccc4c3C[C@@H]2C1=O	0.635 ± 0.72	
C1CCC(C(CC2CCCCN2)C2CCCCC2)CC1 (stereo unspecified)	1.16 ± 0.64	
CCC/C=C\C=C/C(=O)N[C@@H](CC(N)=O)C(=O)NC(CC(N)=O)C(=O)N[C@@H](C(=O)N[C@H](CCCN)C(=O)N[C@@H](C(=O)N[C@@H](C(=O)N[C@@H](C(=O)N[C@H](C(=O)N[C@@H](Cc1ccccc1)C(=O)N[C@H](CCCN)C(=O)NC(C(=O)N[C@H](C(=O)NC(C(=O)NCC(=O)N[C@@H](CC(C)C)C(=O)N[C@H](C)C(=O)NC(C(=O)O)C1CCC(O)C(Cl)C1)C1CCC(O)CC1)[C@H](C)O)C1CCC(O)CC1)[C@H](C)O)C1CCC(O)CC1)C1CCC(O)CC1)[C@H](C)O)C1CCC(O)CC1 (stereo partly specified) [RAMOPLANIN [A2 shown; 2mM]] (X3-N[ξN][X4][dOrn][dT][X4][X4][aThr]F[dOrn][X5][aThr][X5]GL[dA][X6]-OH)	0.635 ± 0.83	
COc1cc(C(=O)NCc2ccc(OCCN(C)C)cc2)cc(OC)c1OC	0.576 ± 0.061	
Cc1cc(C(C)(C)C)c(O)c(C(C)(C)C)c1	-0.595 ± 0.37	
C/C(=C\c1csc(C)n1)[C@@H]1C[C@@H]2O[C@]2(C)CCC[C@H](C)[C@H](O)[C@@H](C)C(=O)C(C)(C)[C@@H](O)CC(=O)N1 [Ixabepilone]	0.498 ± 0.25	
CCOc1nc2cccc(C(=O)OCc3oc(=O)oc3C)c2n1Cc1ccc(-c2ccccc2-c2noc(=O)[nH]2)cc1	-0.893 ± 0.16	

2 compounds picked at random from those above, as already listed:
Compound	mitochondrial oxygen consumption rate normalised (2 µM)	mitochondrial oxygen consumption rate normalised (10 µM)
CCc1nc(N)nc(N)c1-c1ccc(Cl)cc1	-0.408 ± 0.24	
CN1CCN(CCCN2c3ccccc3Sc3ccc(C(F)(F)F)cc32)CC1	0.346 ± 0.43	
